Reference: PubChem BioAssay AID248 (DTP/NCI, 2004)
The list shows only some results of the screen, not a fair sample: it gathers tests that were run many times, whatever their T/C, doses with no T/C, and many T/C values between a quarter and a half above the control. Further doses and runs are listed elsewhere. T/C is the treated group as % of the vehicle group. Some entries give survivors of the animals treated and no T/C: the source files T/C as zero there, which appears to mark a toxic dose or a test without result, not a measured value. Some doses without a T/C left all or most animals alive at the check, yet need not have been tolerated: the source hardly ever lists a survival T/C far under the control, and the zero likely stands for such cases as well. Survivors were counted at the toxicity check, usually on the fifth day, unless a day is given; later deaths do not show. Schedules are NCI's codes, taken here to give the interval after Q, in days (D) or hours (H), and the number of doses after X. Counts like (3×) give the number of equal values in this list. Some structures stand for samples that the source files as different forms (salt, stereo form or complex); doses refer to the form tested. Some entries hold several experiments; their values stand side by side, smallest first. Some schedules carry Z or #; the key to these is not given. For survival time, this PubChem deposit counts one and a half times the control or more as active, and values a quarter to a half above the control carry no call in these data; other NCI protocols may use other cut-offs.

Test system: L1210 leukemia ip in BDF1 mice, survival T/C
Test: NCI In Vivo Anticancer Drug Screen. Data for tumor model L1210 Leukemia (intraperitoneal) in B6D2F1 (BDF1) mice
Details: T/C endpoint: mean survival time, higher T/C = longer survival
[1] = dose: 100.0 mg/kg/injection, schedule: Q04DX003 (ip), vehicle: saline with Tween-80
[2] = dose: 50.0 mg/kg/injection, schedule: Q01DX009 (ip), vehicle: saline
[3] = dose: 200.0 mg/kg/injection, schedule: Q01DX009 (ip), vehicle: saline
[4] = dose: 200.0 mg/kg/injection, schedule: Q04DX003 (ip), vehicle: saline
[5] = dose: 100.0 mg/kg/injection, schedule: Q01DX009 (ip), vehicle: saline
[6] = dose: 400.0 mg/kg/injection, schedule: Q01DX009 (ip), vehicle: saline
[7] = dose: 400.0 mg/kg/injection, schedule: Q04DX003 (ip), vehicle: saline
[8] = dose: 400.0 mg/kg/injection, schedule: Q01DX001 (ip), vehicle: saline
[9] = dose: 400.0 mg/kg/injection, schedule: Q01DX009 (ip), vehicle: Klucel (hydroxypropylcellulose) (HPC)
[10] = dose: 400.0 mg/kg/injection, schedule: Q04DX003 (ip), vehicle: Klucel (hydroxypropylcellulose) (HPC)

Q: With `CCCCC(=O)N(c1ccc(Nc2c3ccccc3nc3cc([N+](=O)[O-])ccc23)cc1)S(C)(=O)=O` as the molecule, how does the T/C (dose: 6.25 mg/kg/injection, schedule: Q01DX009 (sc), vehicle: saline) read?
A: 129 % of control

Q: And the T/C (dose: 11.0 mg/kg/injection, schedule: Q04DX003 (ip), vehicle: saline with Tween-80)?
A: 137 % of control

Q: And the T/C (dose: 12.5 mg/kg/injection, schedule: Q01DX009 (ip), vehicle: saline with Tween-80)?
A: 144 % of control

Q: And the T/C (dose: 12.5 mg/kg/injection, schedule: Q01DX009 (sc), vehicle: saline)?
A: 138 % of control

Q: What about the survivor count (dose: 300.0 mg/kg/injection, schedule: Q04DX003 (ip), vehicle: saline with Tween-80) of the same molecule?
A: 2 of 6

Q: With `Cc1ccc(OCc2c(COc3ccc(Cl)cc3)sc3ccc(Cl)cc23)cc1` as the molecule, how does the survivor count [1] read?
A: 6 of 6

Q: What does the source list for `O=C(N[C@@H](c1ccccc1)[C@H](N=Cc1ccccc1)c1ccccc1)c1ccccc1`?
A: survivor count [2]: 6 of 6; survivor count [3]: 6 of 6; survivor count [4]: 6 of 6

Q: Which results are given for `C[N+](C)(C)CCOC(=O)CCC(=O)OCC[N+](C)(C)C`?
A: survivor count (dose: 6.25 mg/kg/injection, schedule: Q01DX009 (ip), vehicle: saline): 0 of 3; survivor count (dose: 12.5 mg/kg/injection, schedule: Q01DX009 (ip), vehicle: saline): 0 of 3; survivor count (dose: 25.0 mg/kg/injection, schedule: Q01DX009 (ip), vehicle: saline): 0 of 3; survivor count [2]: 0 of 3; survivor count [5]: 0 of 3 and 0 of 6; survivor count [3]: 0 of 6; survivor count [6]: 0 of 6

Q: Which survivor count (dose: 25.0 mg/kg/injection, schedule: Q04DX003 (ip), vehicle: saline) does the source give for `COc1cc2ccc3c(c2cc1OC)C(=O)CNC3C` (configuration not stated) here?
A: 3 of 6

Q: What about the survivor count (dose: 50.0 mg/kg/injection, schedule: Q04DX003 (ip), vehicle: saline) of the same molecule?
A: 1 of 6

Q: What about the survivor count (dose: 100.0 mg/kg/injection, schedule: Q04DX003 (ip), vehicle: saline) of the same molecule?
A: 2 of 6

Q: And the survivor count [4]?
A: 0 of 6

Q: What about the survivor count [7] of the same molecule?
A: 0 of 6

Q: How did the survivor count (dose: 400.0 mg/kg/injection, schedule: Q04DX002 (ip), vehicle: other) turn out when `CC1(C)[C@@H]2CC[C@@]1(CS(=O)(=O)O)C(=O)C2` was run?
A: 2 of 3

Q: `CC(=O)c1cccnc1` was tested. Which survivor count [8] did it give?
A: 0 of 4

Q: For `O=C(Nc1ccc(C2=NCC(O)CN2)cc1)c1ccc(C(=O)Nc2ccc(C3=NCC(O)CN3)cc2)c(Cl)c1` (configuration not stated), which survivor count (dose: 1.25 mg/kg/injection, schedule: Q01DX015 (ip), vehicle: water) is on record?
A: 0 of 6

Q: What about the survivor count (dose: 2.5 mg/kg/injection, schedule: Q01DX015 (ip), vehicle: water) of the same molecule?
A: 0 of 6

Q: What about the survivor count (dose: 3.75 mg/kg/injection, schedule: Q01DX015 (ip), vehicle: water) of the same molecule?
A: 0 of 6

Q: And the survivor count (dose: 5.0 mg/kg/injection, schedule: Q01DX015 (ip), vehicle: water)?
A: 0 of 6

Q: What about the survivor count (dose: 10.0 mg/kg/injection, schedule: Q01DX Z (ip), vehicle: water) of the same molecule?
A: 0 of 6

Q: And the survivor count (dose: 20.0 mg/kg/injection, schedule: Q01DX Z (ip), vehicle: water)?
A: 0 of 6

Q: What about the survivor count (dose: 30.0 mg/kg/injection, schedule: Q01DX Z (ip), vehicle: water) of the same molecule?
A: 0 of 6

Q: For `Cc1cc(N=Nc2ccc(N(C)C)cc2)cc(C)[n+]1[O-]`, which survivor count [9] is on record?
A: 2 of 6

Q: Which results are given for `Cc1c(NC(=O)Nc2ccc(C3=NCCN3)cc2)cccc1NC(=O)Nc1ccc(C2=NCCN2)cc1`?
A: T/C (dose: 5.0 mg/kg/injection, schedule: Q01DX Z (ip), vehicle: carboxymethylcellulose (CMC)): 135 % of control; survivor count (dose: 72.0 mg/kg/injection, schedule: Q01DX Z (ip), vehicle: water): 1 of 6; survivor count (dose: 250.0 mg/kg/injection, schedule: Q01DX Z (ip), vehicle: saline): 0 of 6; survivor count (dose: 500.0 mg/kg/injection, schedule: Q01DX Z (ip), vehicle: saline): 0 of 6

Q: How did the survivor count (dose: 75.0 mg/kg/injection, schedule: Q01DX001 (ip), vehicle: saline) turn out when `CCCCCCCCCCC(N)P(=O)(O)O` (configuration not stated) was run?
A: 6 of 6

Q: What about the survivor count (dose: 150.0 mg/kg/injection, schedule: Q01DX001 (ip), vehicle: saline) of the same molecule?
A: 6 of 6

Q: `N#CC(O)C(Br)(Br)Br` (configuration not stated) was tested. Which survivor count (dose: 40.0 mg/kg/injection, schedule: Q01DX001 (ip), vehicle: saline) did it give?
A: 2 of 4

Q: And the survivor count (dose: 80.0 mg/kg/injection, schedule: Q01DX001 (ip), vehicle: saline)?
A: 0 of 4

Q: What about the survivor count (dose: 100.0 mg/kg/injection, schedule: Q01DX001 (ip), vehicle: saline) of the same molecule?
A: 0 of 4

Q: And the survivor count (dose: 200.0 mg/kg/injection, schedule: Q01DX001 (ip), vehicle: saline)?
A: 0 of 4

Q: And the survivor count [8]?
A: 0 of 4

Q: Which survivor count (dose: 1600.0 mg/kg/injection, schedule: Q01DX Z (ip), vehicle: saline) does the source give for `CCC1=C(c2ccc(OC)cc2)CCC(C(=O)O)C1C` (configuration not stated) here?
A: 3 of 6

Q: Which survivor count (dose: 50.0 mg/kg/injection, schedule: Q01DX009 (ip), vehicle: saline with Tween-80) does the source give for `O=C(CBr)Nc1cc([N+](=O)[O-])ccc1O` here?
A: 2 of 3

Q: What about the survivor count (dose: 100.0 mg/kg/injection, schedule: Q01DX009 (ip), vehicle: saline with Tween-80) of the same molecule?
A: 0 of 3

Q: What about the survivor count (dose: 200.0 mg/kg/injection, schedule: Q01DX009 (ip), vehicle: saline with Tween-80) of the same molecule?
A: 0 of 3

Q: `O=C(Nc1cccc(C(F)(F)F)c1)Nc1ncccn1` was tested. Which survivor count (dose: 200.0 mg/kg/injection, schedule: Q01DX009 (ip), vehicle: Klucel (hydroxypropylcellulose) (HPC)) did it give?
A: 6 of 6 (2×)

Q: For `CN(C)CCC(c1ccccc1)c1cc(Cl)ccn1` (configuration not stated), which survivor count [3] is on record?
A: 0 of 6

Q: And the survivor count [4]?
A: 3 of 4

Q: What about the survivor count [6] of the same molecule?
A: 0 of 6

Q: What does the source list for `Nc1cccc(C(=O)O)c1C(=O)O`?
A: survivor count (dose: 300.0 mg/kg/injection, schedule: Q01DX001 (ip), vehicle: carboxymethylcellulose (CMC)): 1 of 6; survivor count [10]: 3 of 6

Q: `CCCCCCCCCCCCCCCCCc1cc(=O)n(-c2ccc(NC(=O)CCC(=O)OC)cc2)n1C` was tested. Which survivor count (dose: 25.0 mg/kg/injection, schedule: Q04DX003 (ip), vehicle: Klucel (hydroxypropylcellulose) (HPC)) did it give?
A: 6 of 6

Q: And the survivor count (dose: 100.0 mg/kg/injection, schedule: Q04DX003 (ip), vehicle: Klucel (hydroxypropylcellulose) (HPC))?
A: 2 of 6

Q: What about the survivor count (dose: 200.0 mg/kg/injection, schedule: Q04DX003 (ip), vehicle: Klucel (hydroxypropylcellulose) (HPC)) of the same molecule?
A: 0 of 6

Q: What about the survivor count [10] of the same molecule?
A: 0 of 6

Q: With `CCCSP(C(C)C)C(C)C` as the molecule, how does the survivor count [1] read?
A: 0 of 6

Q: And the survivor count (dose: 200.0 mg/kg/injection, schedule: Q04DX003 (ip), vehicle: saline with Tween-80)?
A: 0 of 6

Q: And the survivor count (dose: 400.0 mg/kg/injection, schedule: Q04DX003 (ip), vehicle: saline with Tween-80)?
A: 0 of 6

Q: For `OC1OC(COC(c2ccccc2)(c2ccccc2)c2ccccc2)C(O)C(O)C1O` (configuration not stated), which survivor count [5] is on record?
A: 6 of 6

Q: And the survivor count [3]?
A: 6 of 6

Q: What about the survivor count (dose: 400.0 mg/kg/injection, schedule: Q01DX009 (ip), vehicle: saline with Tween-80) of the same molecule?
A: 0 of 6

Q: And the survivor count [6]?
A: 0 of 6

Q: And the survivor count [7]?
A: 3 of 6

Q: For `Cc1cc([N+](=O)[O-])cc(Br)c1N`, which T/C [1] is on record?
A: 135 % of control

Q: With `CCCCCCCCCC(=O)NO` as the molecule, how does the survivor count [6] read?
A: 4 of 4

Q: With `CCCCCCCCO/N=C\c1c2c(O)c3c(O)c(C)c4c(c3c1O)C(=O)C(C)(O/C=C\C(OC)C(C)C(OC(C)=O)C(C)C(O)C(C)C(O)C(C)/C=C\C=C(\C)C(=O)N2)O4` (configuration not stated) as the molecule, how does the survivor count [9] read?
A: 6 of 6

Q: For `C=CC[Si](C)(C)N1CC1`, which survivor count (dose: 25.0 mg/kg/injection, schedule: Q01DX001 (ip), vehicle: carboxymethylcellulose (CMC)) is on record?
A: 2 of 4

Q: What about the survivor count (dose: 50.0 mg/kg/injection, schedule: Q01DX001 (ip), vehicle: carboxymethylcellulose (CMC)) of the same molecule?
A: 2 of 4

Q: And the survivor count (dose: 100.0 mg/kg/injection, schedule: Q01DX001 (ip), vehicle: carboxymethylcellulose (CMC))?
A: 0 of 4

Q: What about the survivor count (dose: 200.0 mg/kg/injection, schedule: Q01DX001 (ip), vehicle: carboxymethylcellulose (CMC)) of the same molecule?
A: 0 of 4

Q: What about the survivor count (dose: 400.0 mg/kg/injection, schedule: Q01DX001 (ip), vehicle: carboxymethylcellulose (CMC)) of the same molecule?
A: 0 of 4
